Source: US20250289861A1
These are yes or no findings as the source states them, for the method shown. Binding calls can cover weak binding; strength is not graded here. Sequences can lack the tags named with a protein.

The chains behind the UniProt entries cited, without tags or fusion partners. Where a name states a change or a piece, a line headed by the entry shows the natural chain unless it says otherwise.
UniProt P55899: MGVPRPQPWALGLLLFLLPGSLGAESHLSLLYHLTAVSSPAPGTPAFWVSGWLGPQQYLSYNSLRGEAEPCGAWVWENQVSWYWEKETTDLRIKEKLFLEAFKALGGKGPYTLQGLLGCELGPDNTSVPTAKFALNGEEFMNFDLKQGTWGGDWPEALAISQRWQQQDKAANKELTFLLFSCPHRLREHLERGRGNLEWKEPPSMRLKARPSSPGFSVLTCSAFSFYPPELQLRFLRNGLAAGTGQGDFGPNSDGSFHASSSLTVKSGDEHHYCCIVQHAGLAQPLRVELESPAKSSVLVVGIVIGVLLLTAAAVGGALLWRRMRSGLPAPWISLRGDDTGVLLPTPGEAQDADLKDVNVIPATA

Experiments:
[1] = biological target: Human FcRn-GST protein (human) (UniProt P55899); assay: ELISA at pH 6.0: fusion protein coated on the plate, Human FcRn-GST titrated (x axis, ug/ml), anti-GST Ab-HRP, A450
[2] = biological target: Human FcRn-GST protein (human) (UniProt P55899); assay: ELISA at pH 7.4: fusion protein coated on the plate, Human FcRn-GST titrated (x axis, ug/ml), anti-GST Ab-HRP, A450
[3] = biological target: Human FcRn-GST protein (human) (UniProt P55899); assay: ELISA, fusion coated at 4 ug/mL, Human FcRn-GST titrated, pH 6.0 and 7.4, anti-GST Ab-HRP

binding [1]	binding [2]	binding [3]	Binder
binds	binds	binds	PF1802_M022 (GLP1-Fc-mut.IGF1) (Fc fusion) HGEGTFTSDVSSYLEEQAAKEFIAWLVKGGGGSAPAPGGGGSDKTHTCPPCPAPELLGGPSVFLFPPKPKDTLMISRTPEVTCVVVDVSHEDPEVKFNWYVDGVEVHNAKTKPREEQYASTYRVVSVLTVEHWDWLNGKEYKCKVSNKALPAPIEKTISKAKGQPREPQVYTLPPSREEMTKNQVSLTCLVKGFYPSDIAVEWESNGQPENNYKTTPPVLDSDGSFFLYSKLTVDKSRWQQGNVFSCSVLHEALHNHYTQKSLSLSPGKGGGGSGGGGSGGGGSGGGGSGAHSGPATLCGAELVDALQFVCGDRGFYFNKPTGYGSSSRRAPQTGIVDECCARSCDLRRLEMYCAPLKPTKST
binds	binds	binds	PF1802_M020 (GLP1-Fc-mut.IGF1) (Fc fusion) HGEGTFTSDVSSYLEEQAAKEFIAWLVKGGGGSAPAPGGGGSDKTHTCPPCPAPELLGGPSVFLFPPKPKDTLMISRTPEVTCVVVDVSHEDPEVKFNWYVDGVEVHNAKTKPREEQYASTYRVVSVLTVYHMDWLNGKEYKCKVSNKALPAPIEKTISKAKGQPREPQVYTLPPSREEMTKNQVSLTCLVKGFYPSDIAVEWESNGQPENNYKTTPPVLDSDGSFFLYSKLTVDKSRWQQGNVFSCSVLHEALHNHYTQKSLSLSPGKGGGGSGGGGSGGGGSGGGGSGAHSGPATLCGAELVDALQFVCGDRGFYFNKPTGYGSSSRRAPQTGIVDECCARSCDLRRLEMYCAPLKPTKST
binds	binds	binds	PF1802_M021 (GLP1-Fc-mut.IGF1) (Fc fusion) HGEGTFTSDVSSYLEEQAAKEFIAWLVKGGGGSAPAPGGGGSDKTHTCPPCPAPELLGGPSVFLFPPKPKDTLMISRTPEVTCVVVDVSHEDPEVKFNWYVDGVEVHNAKTKPREEQYASTYRVVSVLTVEHMDWLNGKEYKCKVSNKALPAPIEKTISKAKGQPREPQVYTLPPSREEMTKNQVSLTCLVKGFYPSDIAVEWESNGQPENNYKTTPPVLDSDGSFFLYSKLTVDKSRWQQGNVFSCSVLHEALHNHYTQKSLSLSPGKGGGGSGGGGSGGGGSGGGGSGAHSGPATLCGAELVDALQFVCGDRGFYFNKPTGYGSSSRRAPQTGIVDECCARSCDLRRLEMYCAPLKPTKST
